The list is a part of this screen's results and no random one: it gathers tests that were run many times, whatever their T/C, doses with no T/C, and many T/C values between a quarter and a half above the control. Further doses and runs are listed elsewhere. T/C gives the treated animals as a percentage of the vehicle group. Some entries give survivors of the animals treated and no T/C: the source files T/C as zero there, which appears to mark a toxic dose or a test without result, not a measured value. Some doses without a T/C left all or most animals alive at the check, yet need not have been tolerated: survival well below the control is almost never listed, so the zero probably covers shortened survival too. Survivors were counted at the toxicity check, usually on the fifth day, unless a day is given; later deaths do not show. Schedule codes are those of the source, read here as Q, the interval in days (D) or hours (H), X, the number of doses. Some entries were tested several times; their values stand side by side, smallest first. Where survival is the endpoint, this PubChem deposit counts one and a half times the control or more as active, and values a quarter to a half above the control carry no call in these data; other NCI protocols may use other cut-offs. Some T/C values are followed by the survivors on the day toxicity was checked, most often the fifth; where none is given, no animal had died by that day. Brackets with × say how often a value occurs here.
System: L1210 leukemia ip in BDF1 mice, survival T/C
Assay: NCI In Vivo Anticancer Drug Screen. Data for tumor model L1210 Leukemia (intraperitoneal) in B6D2F1 (BDF1) mice
Conditions: T/C endpoint: mean survival time, higher T/C = longer survival
[1] = dose: 12.5 mg/kg/injection, schedule: Q04DX003 (ip), vehicle: saline
[2] = dose: 25.0 mg/kg/injection, schedule: Q04DX003 (ip), vehicle: saline
[3] = dose: 50.0 mg/kg/injection, schedule: Q04DX003 (ip), vehicle: saline
[4] = dose: 100.0 mg/kg/injection, schedule: Q04DX003 (ip), vehicle: saline
[5] = dose: 200.0 mg/kg/injection, schedule: Q04DX003 (ip), vehicle: saline
[6] = dose: 400.0 mg/kg/injection, schedule: Q04DX003 (ip), vehicle: saline
[7] = dose: 400.0 mg/kg/injection, schedule: Q01DX009 (ip), vehicle: saline
[8] = dose: 400.0 mg/kg/injection, schedule: Q04DX002 (ip), vehicle: saline
[9] = dose: 200.0 mg/kg/injection, schedule: Q01DX009 (ip), vehicle: Klucel (hydroxypropylcellulose) (HPC)
[10] = dose: 400.0 mg/kg/injection, schedule: Q01DX009 (ip), vehicle: Klucel (hydroxypropylcellulose) (HPC)
[11] = dose: 100.0 mg/kg/injection, schedule: Q01DX009 (ip), vehicle: saline with Tween-80
[12] = dose: 100.0 mg/kg/injection, schedule: Q04DX002 (ip), vehicle: saline with Tween-80
[13] = dose: 200.0 mg/kg/injection, schedule: Q01DX009 (ip), vehicle: saline with Tween-80
[14] = dose: 200.0 mg/kg/injection, schedule: Q04DX002 (ip), vehicle: saline with Tween-80
[15] = dose: 400.0 mg/kg/injection, schedule: Q04DX002 (ip), vehicle: saline with Tween-80
[16] = dose: 200.0 mg/kg/injection, schedule: Q04DX002 (ip), vehicle: saline

Compound: CNC(C#N)c1ccco1 (stereo not drawn)
- survivor count [1]: 0 of 6
- survivor count [2]: 1 of 6 and 2 of 6
- survivor count [3]: 0 of 6
- survivor count [4]: 0 of 6
- survivor count [5]: 0 of 6
- survivor count [6]: 0 of 6

Compound: O=C(O)C1(O)CCCCC1
- survivor count (dose: 200.0 mg/kg/injection, schedule: Q01DX009 (ip), vehicle: saline): 2 of 3
- survivor count [7]: 0 of 3
- survivor count [8]: 2 of 3

Compound: OCCCNc1nc2cc(Cl)ccc2c2ccc(Cl)cc12
- survivor count [9]: 2 of 6
- survivor count [10]: 1 of 6

Compound: CCn1c2ccccc2c2cc3c(cc21)C(C)=NCC3
- survivor count (dose: 200.0 mg/kg/injection, schedule: Q04DX002 (ip), vehicle: Klucel (hydroxypropylcellulose) (HPC)): 1 of 3
- survivor count (dose: 400.0 mg/kg/injection, schedule: Q04DX002 (ip), vehicle: Klucel (hydroxypropylcellulose) (HPC)): 0 of 3

Compound: CC1CCCC(C)(C)C1NCc1cc(Br)cc(Br)c1O (stereo not drawn)
- survivor count [9]: 2 of 6

Compound: Cc1ccc(CNC(=S)NC2CCCCC2)cc1C
- survivor count [9]: 5 of 6
- survivor count [10]: 1 of 6

Compound: O=C1OC(O)c2cccc3cccc1c23 (stereo not drawn)
- T/C (dose: 25.0 mg/kg/injection, schedule: Q01DX009 (ip), vehicle: saline with Tween-80): 91, 96, 97, 101, 115 % of control
- T/C (dose: 50.0 mg/kg/injection, schedule: Q01DX009 (ip), vehicle: saline with Tween-80): 90, 92 (2×), 104, 110, 115, 148 % of control
- T/C [11]: 96 (2×), 97 (2×), 103 [5 of 6 alive], 106 [2 of 3 alive], 107, 108 % of control [2 of 3 alive]
- survivor count [11]: 2 of 6
- T/C [12]: 91, 98 [5 of 6 alive] (2×), 100 % of control
- T/C [13]: 98 [4 of 6 alive], 110 [2 of 3 alive], 114 % of control [2 of 3 alive]
- survivor count [13]: 1 of 6 and 1 of 3
- T/C [14]: 90, 93, 94 [5 of 6 alive], 98 % of control
- survivor count (dose: 400.0 mg/kg/injection, schedule: Q01DX009 (ip), vehicle: saline with Tween-80): 0 of 3 and 0 of 6
- T/C [15]: 100, 103 [4 of 6 alive], 103 % of control [5 of 6 alive]
- survivor count [15]: 1 of 3

Compound: COc1c(NC(=O)Nc2ccccc2Cl)cccc1[N+](=O)[O-]
- survivor count [12]: 3 of 3
- survivor count [14]: 3 of 3

Compound: C[N+](C)(CCCCCCCCCC[N+](C)(C)Cc1ccccc1)Cc1ccccc1
- survivor count [1]: 3 of 6
- survivor count [2]: 1 of 6
- survivor count [3]: 0 of 6
- survivor count [4]: 0 of 6
- survivor count [5]: 0 of 6
- survivor count [6]: 0 of 6

Compound: c1coc(CCc2nc3ccccc3[nH]2)c1
- survivor count (dose: 400.0 mg/kg/injection, schedule: Q04DX003 (ip), vehicle: Klucel (hydroxypropylcellulose) (HPC)): 2 of 6

Compound: CS(=O)(=O)c1nc2ccc([N+](=O)[O-])cc2s1
- survivor count [16]: 0 of 3
- survivor count [8]: 0 of 3

Compound: OC(c1ccccc1)c1ccccc1 (tested in a mixture with another compound)
- survivor count (dose: 40.0 mg/kg/injection, schedule: Q01DX001 (ip), vehicle: saline): 3 of 6
- survivor count (dose: 75.0 mg/kg/injection, schedule: Q01DX001 (ip), vehicle: saline): 2 of 6
- survivor count (dose: 150.0 mg/kg/injection, schedule: Q01DX001 (ip), vehicle: saline): 0 of 6
- survivor count (dose: 300.0 mg/kg/injection, schedule: Q01DX001 (ip), vehicle: saline): 0 of 6

Compound: CN1CCC(OC(c2ccccc2)c2ccccc2)CC1
- survivor count (dose: 80.0 mg/kg/injection, schedule: Q01DX009 (ip), vehicle: saline): 1 of 6
- survivor count [4]: 3 of 6
- survivor count [5]: 0 of 6
- survivor count [6]: 0 of 6

Compound: NCc1ccc(Cl)cc1Cl
- survivor count [7]: 0 of 6

Compound: c1ccc2nc3nc4ccccc4nc3nc2c1
- survivor count (dose: 40.0 mg/kg/injection, schedule: Q04DX002 (ip), vehicle: gum acacia): 1 of 3
- survivor count (dose: 75.0 mg/kg/injection, schedule: Q04DX002 (ip), vehicle: gum acacia): 0 of 3
- survivor count (dose: 80.0 mg/kg/injection, schedule: Q04DX002 (ip), vehicle: gum acacia): 0 of 3
- survivor count (dose: 150.0 mg/kg/injection, schedule: Q04DX002 (ip), vehicle: gum acacia): 0 of 3
- survivor count (dose: 300.0 mg/kg/injection, schedule: Q04DX002 (ip), vehicle: gum acacia): 0 of 3

Compound: O=C(c1ccccc1)N1CCCCC1
- survivor count [7]: 3 of 6
- survivor count [6]: 3 of 6

Compound: CCOC(=O)C[P+](c1ccc(C)cc1)(c1ccc(C)cc1)c1ccc(C)cc1
- survivor count (dose: 30.0 mg/kg/injection, schedule: Q01DX001 (ip), vehicle: carboxymethylcellulose (CMC)): 5 of 6
- survivor count (dose: 60.0 mg/kg/injection, schedule: Q01DX001 (ip), vehicle: carboxymethylcellulose (CMC)): 0 of 6

Compound: CC1=NC(C#N)=C(C#N)N=C(C)C1
- survivor count (dose: 75.0 mg/kg/injection, schedule: Q01DX009 (ip), vehicle: Klucel (hydroxypropylcellulose) (HPC)): 0 of 6
- survivor count [9]: 0 of 6
- survivor count [10]: 0 of 6

Compound: CC(C)=CCNc1ncnc2nc[nH]c12
- survivor count (dose: 40.0 mg/kg/injection, schedule: Q04DX003 (ip), vehicle: saline with Tween-80): 3 of 6
- survivor count (dose: 80.0 mg/kg/injection, schedule: Q01DX001 (ip), vehicle: saline): 1 of 4
- survivor count (dose: 80.0 mg/kg/injection, schedule: Q04DX003 (ip), vehicle: saline with Tween-80): 2 of 6
- survivor count (dose: 100.0 mg/kg/injection, schedule: Q01DX001 (ip), vehicle: saline): 2 of 4
- survivor count (dose: 200.0 mg/kg/injection, schedule: Q01DX001 (ip), vehicle: saline): 1 of 4
- survivor count (dose: 400.0 mg/kg/injection, schedule: Q01DX001 (ip), vehicle: saline): 2 of 4

Compound: O=[N+]([O-])C(Br)C(Br)c1ccccc1 (stereo not drawn)
- survivor count (dose: 75.0 mg/kg/injection, schedule: Q01DX001 (ip), vehicle: Klucel (hydroxypropylcellulose) (HPC)): 6 of 6
- survivor count (dose: 150.0 mg/kg/injection, schedule: Q01DX001 (ip), vehicle: Klucel (hydroxypropylcellulose) (HPC)): 1 of 6
- survivor count (dose: 300.0 mg/kg/injection, schedule: Q01DX001 (ip), vehicle: Klucel (hydroxypropylcellulose) (HPC)): 0 of 6

Compound: CCCNC(c1ccccc1)=[N+]1CCCCC1
- survivor count (dose: 50.0 mg/kg/injection, schedule: Q04DX002 (ip), vehicle: saline): 0 of 3
- survivor count (dose: 100.0 mg/kg/injection, schedule: Q04DX002 (ip), vehicle: saline): 0 of 3
- survivor count [16]: 0 of 3
- survivor count [8]: 0 of 3

Compound: C/C=C\C#N
- survivor count [7]: 0 of 6
- survivor count [6]: 0 of 6

Compound: CCN(O)C(N)=O
- T/C (dose: 176.0 mg/kg/injection, schedule: Q01DX009 (ip), vehicle: saline): 129 and 144 % of control
- T/C (dose: 268.0 mg/kg/injection, schedule: Q01DX009 (ip), vehicle: saline): 140 % of control
- T/C [7]: 148 % of control

Compound: [O-][n+]1ccccc1SSc1cccc[n+]1[O-]
- T/C (dose: 3.12 mg/kg/injection, schedule: Q01DX009 (ip), vehicle: Klucel (hydroxypropylcellulose) (HPC)): 135 % of control
- survivor count (dose: 6.25 mg/kg/injection, schedule: Q01DX009 (ip), vehicle: Klucel (hydroxypropylcellulose) (HPC)): 1 of 3
- survivor count (dose: 50.0 mg/kg/injection, schedule: Q01DX009 (ip), vehicle: Klucel (hydroxypropylcellulose) (HPC)): 0 of 3
- survivor count (dose: 100.0 mg/kg/injection, schedule: Q01DX009 (ip), vehicle: Klucel (hydroxypropylcellulose) (HPC)): 0 of 3
- survivor count [9]: 0 of 3

Compound: C(=N\N(CCCCN(/N=C/c1ccccc1)c1ccccc1)c1ccccc1)/c1ccccc1
- survivor count (dose: 100.0 mg/kg/injection, schedule: Q01DX009 (ip), vehicle: gum acacia): 6 of 6

— PubChem BioAssay AID248 (DTP/NCI, 2004)
